Earlier results in patent publication US12403100B2, “Natural combination products and methods for regulation of total blood cholesterol” (priority 2018, dated 2025).

By UniProt entry, the sequences of proteins in these tests, tags left out.
UniProt P08684, whole entry: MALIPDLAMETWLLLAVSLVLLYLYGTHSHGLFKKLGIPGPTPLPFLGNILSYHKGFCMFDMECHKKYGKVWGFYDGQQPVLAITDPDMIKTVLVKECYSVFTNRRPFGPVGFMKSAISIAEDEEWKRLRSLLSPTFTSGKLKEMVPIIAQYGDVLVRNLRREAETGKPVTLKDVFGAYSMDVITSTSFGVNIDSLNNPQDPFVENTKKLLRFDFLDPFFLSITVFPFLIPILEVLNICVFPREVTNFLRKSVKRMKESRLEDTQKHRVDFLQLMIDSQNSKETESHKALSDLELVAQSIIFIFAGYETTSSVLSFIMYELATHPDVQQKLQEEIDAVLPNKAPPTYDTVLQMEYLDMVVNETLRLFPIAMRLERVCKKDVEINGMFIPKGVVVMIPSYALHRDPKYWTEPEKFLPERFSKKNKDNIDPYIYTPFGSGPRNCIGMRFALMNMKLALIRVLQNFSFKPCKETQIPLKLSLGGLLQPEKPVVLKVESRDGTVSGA

Assays:
[1] = system: CYP450
[2] = in vivo
[3] = in vivo; remark: listed apart in the source
[4] = system: plasma proteins
[5] = molecular target: CYP 3A4 (Homo sapiens, UniProt P08684)

SMILES: CC(C)c1c(C(=O)Nc2ccccc2)c(-c2ccccc2)c(-c2ccc(F)cc2)n1CC[C@@H](O)C[C@@H](O)CC(=O)O [Atorvastatin]
- Metabolism by CYP450 [1]: Yes
- Absorption (%) [2]: 95-99%
- Renal excretion (%) [2]: 2%
- Passing through the blood-brain barrier [3]: Yes
- Binding to Plasma proteins (%) [4]: 98%
- metabolized by CYP 3A4 [5]: metabolized
